In patent US6063612A, “Antiviral reagents based on RNA-binding proteins” (priority 1991, dated 2000):
Part of at least one peptide drawing is inferred or uncertain, most often the ends. Residues, ends and D or L forms follow the SMILES beside them.

Key:
HIV-2 TAR RNA = experiment: Gel mobility shift assay, HIV-2 TAR-RNA substrate; format: binding; conditions: 200 ng polypeptide, 20 minutes at 25° C., 10% native polyacrylamide gel
yeast tRNA = experiment: Gel mobility shift assay, yeast tRNA substrate (negative control); format: binding; conditions: 200-400 ng polypeptide
HIV-1 TAR RNA = experiment: Gel mobility shift assay, HIV-1 TAR-RNA substrate; format: binding; conditions: 200 ng polypeptide, 20 minutes at 25° C., 10% native polyacrylamide gel
ΔTAR RNA = experiment: Gel mobility shift assay, ΔTAR-RNA substrate; format: binding, HIV-1; conditions: 200 ng polypeptide, 20 minutes at 25° C., 10% native polyacrylamide gel

Which results are given for `CC(C)C[C@H](NC(=O)[C@H](CO)NC(=O)[C@@H](NC(=O)[C@H](CCC(N)=O)NC(=O)[C@H](Cc1c[nH]cn1)NC(=O)[C@@H](NC(=O)[C@H](CCC(N)=O)NC(=O)[C@H](CO)NC(=O)CNC(=O)[C@H](CCC(N)=O)NC(=O)[C@@H]1CCCN1C(=O)[C@@H]1CCCN1C(=O)[C@H](CCCNC(=N)N)NC(=O)[C@H](CCCNC(=N)N)NC(=O)[C@H](CCCNC(=N)N)NC(=O)[C@H](CCC(N)=O)NC(=O)[C@H](CCCNC(=N)N)NC(=O)[C@H](CCCNC(=N)N)NC(=O)[C@H](CCCCN)NC(=O)[C@H](CCCCN)NC(=O)[C@@H](N)CCCNC(=N)N)[C@@H](C)O)C(C)C)C(=O)N[C@@H](CO)C(=O)N[C@@H](CCCCN)C(=O)N[C@@H](CCC(N)=O)C(=O)N[C@@H](CS)C(=O)O` [TAT24C] (H-RKKRRQRRRPPQGSQTHQVSLSKQC-OH)?
gel mobility shift of HIV-2 TAR RNA (HIV-2 TAR RNA): discrete bands having retarded mobility; gel mobility shift of tRNA (yeast tRNA): Essentially no retardation; gel mobility shift of HIV-1 TAR RNA (HIV-1 TAR RNA): discrete bands having retarded mobility; gel mobility shift of ΔTAR RNA (ΔTAR RNA): discrete bands having retarded mobility
